The text below walks through data of US9931407B2 (BlinkBio, Inc., priority 2015, dated 2018).

This data set can be described thus: peptide synthesis. The note with it: conjugation step.

“5-(N-(2-(4-(3-(((5-((3-(((3S,8S,11S,14R)-1-(4-(((2-amino-4-oxo-3,4-dihydropteridin-6-yl)methyl)amino)phenyl)-3,14-dicarboxy-8-(carboxymethyl)-11-((3-(5,5-difluoro-7-methyl-5H-5l4,6l4-dipyrrolo[1,2-c:2′,1′-f][1,3,2]diazaborinin-3-yl)propanamido)methyl)-1,6,9,12-tetraoxo-2,7,10,13-tetraazapentadecan-15-yl)thio)-2,5-dioxopyrrolidin-1-yl)methyl)pyrimidin-2-yl)thio)methyl)-1,1,3,3-tetramethyldisiloxanyl)butanamido)ethyl)sulfamoyl)-2-(6-(diethylamino)-3-(diethyliminio)-3H-xanthen-9-yl)benzenesulfonate”: the conjugation yield is on record as 38%. Turning to “(2S,5S,8S,11S,14S,19S)-2-((1-((2-(((3-(3-Acetamidopropyl)-1,1,3,3-tetramethyldisiloxanyl)methyl)thio)pyrimidin-5-yl)methyl)-1H-1,2,3-triazol-4-yl)methyl)-19-(4-(((2-amino-4-oxo-3,4-dihydropteridin-6-yl)methyl)amino)benzamido)-5,8,14-tris(carboxymethyl)-11-(3-guanidinopropyl)-4,7,10,13,16-pentaoxo-3,6,9,12,15-pentaazaicosane-1,20-dioic acid”, the conjugation yield stood at 17.1%.
